{
  "source": "patent US8846329B1",
  "about": "“Microorganisms for producing organic acids” (Wisconsin Alumni Research Foundation, priority 2012, dated 2014)",
  "tested_on": "Synechococcus sp. PCC 7002",
  "experiment": "Minimum inhibitory concentration of organic acids / growth inhibition",
  "assay_type": "cell-based",
  "conditions": "solid medium",
  "description": "One aspect of the increased tolerance to organic acids is an increase in the minimal inhibitory concentration (MIC) of a particular organic acid compared to a corresponding microorganism. MIC is the lowest concentration of an agent that will inhibit growth of a microorganism. An MIC can be determined by titrating the agent in the growth medium of the microorganism. The lowest concentration of the agent in which the microorganism is no longer able to grow is the MIC. Methods of culturing microorganisms and of detecting their growth are well known in the art and are not discussed in detail herein.\nThe minimum inhibitory concentrations (MIC) for PCC 7002, Synechococcus sp. PCC 7942, and Synechocystis sp. PCC 6803 were determined for acrylic acid, 3HP, and propionic acid at a pH of about 8 (Table 1).",
  "data": [
    {"smiles": "C=CC(=O)O", "note": "[acrylic acid]", "values": [
      {"measurement": "Mutation frequency when selecting for growth", "setting": "50 μM acrylic acid", "value": "7×10^−6"},
      {"measurement": "Mutation frequency when selecting for growth", "setting": "5 mM acrylic acid", "value": "4×10^−6"}
    ]}
  ]
}
